Test results taken from PubChem BioAssay AID1508600 (Functional Genomics Laboratory (NCATS/FGL), 2020).
The whole screen tested about 53,000 sequences, of which about 3,700 (7%) were called active.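 Rule for the calls: active = gene knockdowns whose robust z-score for IL-1 alpha signal is at least 2 or at most -2, so actives lie on both sides; inactive = the rest.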 This is one part of the list.

Assay: Components of the Cytosolic LPS Sensing Pathway: Gene Identification via Genome-wide siRNA Screen;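 note: robust z of the log signal after scaling to non-targeting control siRNA wells of the plate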
Conditions: RAW264.7 macrophages, IL-1a HTRF, actives lie on both sides, screened at 100 nM (by protocol), cells primed 5 h with Pam3CSK4 first
Method in brief: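 IL-1a HTRF of supernatants after 24 hour LipidA transfection of Pam3CSK4-primed (5 hours) RAW264.7 cells, 48h post-siRNA transfection (100 nM). Scores: percent of plate negative-control median, then log-based robust z-score.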

Sequence	z-score
GGAAAACACAAGCAAUACATT against Pus3	inactive: 0.3
GGCUAGUGGUUUAUUUAUGTT against Pafah1b1	inactive: -0.506
GGGAUUCGGUGAAGAUUUGTT against Nfe2l1	inactive: -0.736
GGCUGGGCUCUAUGGAUUATT against Fasn	inactive: -0.821
GGCAAUGUGUAGGUGCAAATT against A130050O07Rik	inactive: 1.38
CGACAGUUACUUGCCCAGATT against Rasgrp3	inactive: -1.36
GCUGUAAAAUUGUUCCUAATT against Pebp4	inactive: -1.03
GGACAAGCUGAGGUGAAAATT against Maats1	inactive: -1.08
GGAAGGAGAAAAGCUUUCUTT against Olfr992	inactive: -0.46
GGAAAACAGAUACGUGCAUTT against Ccne2	inactive: 0.212
GCGACGAGAAGAAUCUGCUTT against Mtcl1	inactive: -0.641
CCCAGUAAUCCGUUACAAATT against Cyp51	inactive: -0.123
GGAAUCGAGAUAUAAAAGGTT against Olfr352	inactive: -1.29
CCAUCGUAUUUAACCACAUTT against Dtymk	inactive: 0.206
CCUGAGUGAAAACUACUUATT against Nagk	inactive: 0.356
GCUGCUAUCCAGAAGGUAUTT against Egr2	active: -2.04
GGAUGCUAUACAUUUCUACTT against Stip1	inactive: 1.27
GGCCAACAUCUGCUAUGUCTT against Hao2	active: -2.58
GCUCAGCAUGCUGAUUCCATT against Zmynd15	inactive: 0.0921
GGUGACAACACUUGUCAACTT against Ctnna2	inactive: -0.551
CCUCAACUCCCUGUCACACTT against Rnaseh2a	inactive: 0.944
CGGCAGACAGACCUAUGAUTT against Exosc9	inactive: -1.56

Sequence	z-score
GGUGAUCAGACUAUCAGCUTT against Olfr1384	inactive: 0.115
GCAACAACGAGUCAUGGCUTT against Plcd1	inactive: -0.502
GGAAUUUCUUAUCCUCAUGTT against Cyp2c29	inactive: 0.278
CGCAGGUGUACAUAGCAGUTT against C130050O18Rik	inactive: 0.996
GCUACCAUCUGCUAAUACATT against Smg1	active: 3.65
CCUUGAGGAACCAACAAAATT against Rarb	inactive: 0.0528
CCAGCUGUCACAUGAAGUGTT against Fbxo38	inactive: -0.482
GGAGAUCAUGUCAAAAAAGTT against Ibtk	inactive: -0.848
CCUUUCCUGACAAUGUACATT against Nectin1	inactive: 0.765
CCGGAAGACUGGUAUUCUCTT against Nr1h4	inactive: -0.324
GGGCUAGACAUCAUCACCATT against Trit1	inactive: -1.58
GGCUGAUAGGUGUAUCUGGTT against Trim11	inactive: -0.718
CCAGUUACGUUAAAAGCUUTT against Tmem131	inactive: -1.13
GGAGGUAAAAGAUGAGAAATT against Plekho1	inactive: 1.57
GGGUGUCAUAUAUAUUGCUTT against Gpr83	inactive: 0.889
GGAGGUGGAGUUCAUCUUUTT against Chrne	inactive: 0.976
GGAUGGUUCUGAGGUGAAATT against Il25	inactive: 1.59
CGUGGUUUGUCAAUGAAGGTT against Eprs	inactive: 0.358
GGAUGCAUAUUAAAGAAACTT against Gabrb3	inactive: -0.659
CCUUACCACUUGAAGAUGGTT against Ephx1	inactive: -1.2
GCGAUUUCAUAAAGUAAACTT against 1110059G10Rik	inactive: -1.42
GGAUAAGGAAGGAAUUCCUTT against Rps27a	inactive: -0.5

4 entries picked at random from the list so far:
Sequence	z-score
GGGCUAGACAUCAUCACCATT against Trit1	inactive: -1.58
GGGUGUCAUAUAUAUUGCUTT against Gpr83	inactive: 0.889
GGAUAAGGAAGGAAUUCCUTT against Rps27a	inactive: -0.5
GGAGAUCAUGUCAAAAAAGTT against Ibtk	inactive: -0.848

The list goes on.

Sequence	z-score
CCGAAUUUCUCCUAUUGGGTT against Olfr106-ps	inactive: -0.241
GCGAGACUAUCAAAUCUAUTT against Gabra4	inactive: 0.948
GGCCAUUAAAUUUAUCAACTT against Aldh3a1	inactive: 1.61
CCCUCAAGAGACCCAAAUUTT against Xrcc1	inactive: 1.37
GGCGGCAAGCAACAACAAUTT against Ssbp1	inactive: 0.155
CGGCCAACUUUCAUUGAUCTT against Ikzf4	inactive: -0.984
GGAAAAAGAGCUUUUGGUCTT against Piwil2	inactive: 0.528
CCCGGACAUCAUAAUCAGUTT against Ppcs	inactive: 0.694
GCUUUGAGUACUGACACGCTT against Ccr10	inactive: 1.37
GCAAUUCCAAGAAAGUGUGTT against Prmt5	inactive: -0.305
GGACCUUCUAUUAUUUGUATT against Tmem67	inactive: -0.794
CCUUUGAAAACCUACAAGUTT against Ppara	inactive: -0.834
GCGGCUUCAUUUCAAGCUGTT against Lnx2	inactive: -1.34
GCCAAUCAACUGAUGGCUUTT against Pax3	inactive: 0.709
GGUCCUUAGAAUAAUUAAGTT against Me1	inactive: -1.01
GUCUGUCAUUUGUGGAAAUTT against Olfr1495	active: -2.17
GGAAACCUGUCCAGUUCUUTT against Slc38a5	inactive: -1.2
GCUAAUGGACAGGUAAAUATT against Pcdh1	inactive: 0.512
GGUGACCAACUCUAUCAGGTT against Pglyrp1	inactive: 0.0498
GCAUGCUUAAGCCUAUAAATT against Ncstn	inactive: -1.88
GGACAACAAAGGGAGAUUCTT against Kctd12b	inactive: 1.43
GGAAAUGACCACAAUAUUUTT against Plaa	inactive: 0.856

Sequence	z-score
GGCAGUUUCUUCAGUUCUUTT against Mcub	inactive: 0.339
CCACAGACUCUUAAUUAGATT against Ap3b1	active: -2.14
GCUUGUUCAGUUAACAAGATT against Ppp6r3	inactive: 1.92
CGAUUAUCAACUCAUAUGCTT against Eif5a2	inactive: 0.0842
GGUGAAGAUCAUAUAAAAGTT against Crebl2	inactive: 0.48
GCUUAAGUUCCUUCUUCUCTT against Tas2r144	inactive: 1.38
GGCUCUUAAUACCACCUACTT against Egr1	inactive: -1.49
GGAGAUGUACCACAAUGCCTT against Prss29	inactive: -0.128
CGGAUUUAAGCAGAGUGGATT against Fgl1	inactive: -1.72
GGUAGUAUUCAGUGAAUACTT against Cks2	inactive: -0.192
CCUAAACAUCACUUGCUCUTT against Cd200	inactive: -1.2
CGGAAGAAUAAAAACCGGCTT against Meaf6	inactive: 0.601
GGACCUGUCUUCAUUGGAGTT against Ngb	inactive: 0.981
GGAAGAUUCUAGAAAUGUGTT against Rimkla	inactive: -0.386
GGUGUGUGAGAUAAUUGAGTT against Cops6	inactive: 0.481
GGCCAAUGCACUCCUGAUCTT against Gna11	inactive: -0.238
GGAAGCUUUUGUCGGUCCATT against Hap1	inactive: -0.361
GGAACUCAGAGCUAAACUUTT against Eri1	inactive: -1.42
CGGUGAGGAUUGUUGAGCUTT against Spred3	inactive: 0.0843
GCAUCACGUACGCCAUCAUTT against Ldlrad3	inactive: -0.716
GGGAAUCUCUACAGACCCUTT against Tmem108	inactive: -0.158
GGAUUUGGCAACAGACUUUTT against Ryr2	inactive: -0.391

Sequence	z-score
GCCUGUAGACACAAAAUUUTT against Akp3	inactive: 0.614
CCCAGUUGCUAUGCUUGACTT against Defb37	inactive: 1.68
CCUAAAGUCUCUGAAUCAGTT against Fyb	inactive: 0.45
GGAGAUACUUCGAUACUUUTT against Baz1b	inactive: 0.406
GGAUUGAUAAUGAACUUCGTT against Slc13a5	inactive: -1.38
GGAAGAUGAUACAAGCAAATT against A930002I21Rik	inactive: 0.292
GGUAGAGCAAGACCUUCCUTT against P4ha3	inactive: 0.514
GGAGGCGUGUACCUAAAGATT against Adm2	inactive: -0.302
GCUACGAGAGGUCAUUUCCTT against Chrnb1	inactive: 0.041
GCAUUAGUCAUUGUUAACGTT against Hsd17b4	inactive: 0.653
GGUCCAGAUUGCUUAGAUGTT against Zbtb11os1	inactive: -0.398
GGUGUAAAAAUGUGAAAGATT against Suv39h2	inactive: 0.208
GCUAGAAAGGACUUCGUGGTT against Pla2g4f	active: -2.36
CGACUACAAUGGGCUCAAGTT against Kifc3	active: -2.1
GGACUCUGAAUCAACUUGGTT against Stx7	inactive: -1.09
GGUUAAGGGCAAAAUUCUGTT against Rpl21	inactive: -0.269
GGAGUGAAGGCCAGCUGAATT against Son	inactive: -0.848
GCCUUUACCAGAAUUAUAGTT against Itgb3	inactive: 0.57
CCACCAGAAUCCUAACACATT against Nucb2	active: 2.55
